Test results as given in article PMC12450650.
These are yes or no findings as the source states them, for the method shown. For some of these results: In cells and extracts the contact can be indirect. For some of these results: Tags and fused reporters may be left off the sequences shown. Some entries that bind do so weakly or less than the wild type.

Amino acid sequences for entries named in this document (tags omitted).
UniProt Q62318: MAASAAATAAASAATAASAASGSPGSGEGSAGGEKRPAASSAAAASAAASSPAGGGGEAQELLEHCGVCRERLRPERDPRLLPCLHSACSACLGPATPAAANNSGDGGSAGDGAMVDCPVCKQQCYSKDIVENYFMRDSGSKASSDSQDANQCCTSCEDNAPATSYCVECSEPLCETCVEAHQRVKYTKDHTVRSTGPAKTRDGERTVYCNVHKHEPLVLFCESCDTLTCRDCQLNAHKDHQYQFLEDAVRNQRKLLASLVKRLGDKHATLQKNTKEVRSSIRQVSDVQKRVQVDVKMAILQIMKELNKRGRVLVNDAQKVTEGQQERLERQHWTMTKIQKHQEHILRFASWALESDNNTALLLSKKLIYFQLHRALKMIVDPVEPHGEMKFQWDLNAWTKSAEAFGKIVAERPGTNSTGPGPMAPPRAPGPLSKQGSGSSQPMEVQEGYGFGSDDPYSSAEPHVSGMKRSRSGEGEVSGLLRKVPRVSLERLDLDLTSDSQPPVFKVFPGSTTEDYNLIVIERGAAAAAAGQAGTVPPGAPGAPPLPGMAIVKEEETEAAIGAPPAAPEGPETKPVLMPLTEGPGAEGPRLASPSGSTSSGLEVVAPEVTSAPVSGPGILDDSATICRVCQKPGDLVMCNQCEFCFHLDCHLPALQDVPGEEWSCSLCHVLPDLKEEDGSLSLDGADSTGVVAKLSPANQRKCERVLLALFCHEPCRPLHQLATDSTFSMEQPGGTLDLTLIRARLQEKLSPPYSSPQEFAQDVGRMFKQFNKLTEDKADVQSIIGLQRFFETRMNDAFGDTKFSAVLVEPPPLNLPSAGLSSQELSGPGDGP
UniProt Q15797: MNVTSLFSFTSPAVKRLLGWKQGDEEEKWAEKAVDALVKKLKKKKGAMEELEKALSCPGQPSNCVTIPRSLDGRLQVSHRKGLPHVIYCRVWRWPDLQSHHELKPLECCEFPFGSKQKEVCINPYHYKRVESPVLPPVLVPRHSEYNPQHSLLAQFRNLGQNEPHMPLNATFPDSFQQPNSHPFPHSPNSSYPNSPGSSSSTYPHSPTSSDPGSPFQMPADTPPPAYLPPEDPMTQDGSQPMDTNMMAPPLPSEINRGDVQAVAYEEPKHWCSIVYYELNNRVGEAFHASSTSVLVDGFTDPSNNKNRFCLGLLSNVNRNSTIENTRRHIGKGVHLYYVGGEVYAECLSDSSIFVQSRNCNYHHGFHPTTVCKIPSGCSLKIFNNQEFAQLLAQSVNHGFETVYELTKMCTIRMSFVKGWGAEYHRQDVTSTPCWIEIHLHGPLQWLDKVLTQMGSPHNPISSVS
UniProt Q13485: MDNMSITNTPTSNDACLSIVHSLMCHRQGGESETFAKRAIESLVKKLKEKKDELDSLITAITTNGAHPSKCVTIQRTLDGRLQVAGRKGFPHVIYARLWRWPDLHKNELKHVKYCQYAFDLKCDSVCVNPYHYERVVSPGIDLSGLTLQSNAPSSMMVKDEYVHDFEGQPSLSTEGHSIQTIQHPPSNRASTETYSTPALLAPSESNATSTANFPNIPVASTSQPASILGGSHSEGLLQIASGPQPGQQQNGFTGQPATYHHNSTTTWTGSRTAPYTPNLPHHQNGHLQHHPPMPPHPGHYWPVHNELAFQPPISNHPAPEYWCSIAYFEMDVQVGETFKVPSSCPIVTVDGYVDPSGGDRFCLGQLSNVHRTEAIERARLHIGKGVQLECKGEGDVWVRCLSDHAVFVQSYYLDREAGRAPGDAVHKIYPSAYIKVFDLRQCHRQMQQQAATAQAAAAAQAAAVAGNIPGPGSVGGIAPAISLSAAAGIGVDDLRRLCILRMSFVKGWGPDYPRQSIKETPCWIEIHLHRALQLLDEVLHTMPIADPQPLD

Assays:
[1] = biological target: T1, FLAG-tagged KDM1B (mouse) (mouse) (UniProt Q8CIG3); experiment: co-IP; HEK293T cells transiently transfected, 36 h; lysis buffer 20 mM Hepes, 100 mM NaCl, 0.5 mM EDTA, 10% glycerol, 0.2% NP-40; FLAG-tagged protein precipitated with anti-FLAG M2 on anti-mouse IgG Dynabeads, 4 h; Western blot
T1 sequence: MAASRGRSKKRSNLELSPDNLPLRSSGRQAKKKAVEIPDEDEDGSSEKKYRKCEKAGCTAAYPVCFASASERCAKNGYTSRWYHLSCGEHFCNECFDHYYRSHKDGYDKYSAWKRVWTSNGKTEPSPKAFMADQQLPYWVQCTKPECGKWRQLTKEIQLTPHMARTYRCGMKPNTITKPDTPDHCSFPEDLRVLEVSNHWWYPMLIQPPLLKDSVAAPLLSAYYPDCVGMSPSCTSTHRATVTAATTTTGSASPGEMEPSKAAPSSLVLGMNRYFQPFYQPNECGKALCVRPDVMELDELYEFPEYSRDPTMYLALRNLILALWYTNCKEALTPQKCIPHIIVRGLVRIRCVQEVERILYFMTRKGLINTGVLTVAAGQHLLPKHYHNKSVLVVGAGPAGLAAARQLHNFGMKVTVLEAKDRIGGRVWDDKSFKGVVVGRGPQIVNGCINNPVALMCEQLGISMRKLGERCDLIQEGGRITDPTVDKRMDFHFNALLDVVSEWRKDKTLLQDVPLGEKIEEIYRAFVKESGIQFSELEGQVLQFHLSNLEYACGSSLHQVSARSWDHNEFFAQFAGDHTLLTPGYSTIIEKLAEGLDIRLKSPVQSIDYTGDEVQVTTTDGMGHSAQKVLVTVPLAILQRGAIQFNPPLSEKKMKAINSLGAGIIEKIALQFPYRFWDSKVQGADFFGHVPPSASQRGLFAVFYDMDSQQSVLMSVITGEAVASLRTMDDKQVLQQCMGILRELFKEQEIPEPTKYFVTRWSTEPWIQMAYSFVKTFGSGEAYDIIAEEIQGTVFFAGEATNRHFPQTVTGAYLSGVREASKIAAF

[2] = biological target: T2, FLAG-tagged ZFP57 (mouse) (mouse) (UniProt Q8C6P8); experiment: as above
T2 sequence: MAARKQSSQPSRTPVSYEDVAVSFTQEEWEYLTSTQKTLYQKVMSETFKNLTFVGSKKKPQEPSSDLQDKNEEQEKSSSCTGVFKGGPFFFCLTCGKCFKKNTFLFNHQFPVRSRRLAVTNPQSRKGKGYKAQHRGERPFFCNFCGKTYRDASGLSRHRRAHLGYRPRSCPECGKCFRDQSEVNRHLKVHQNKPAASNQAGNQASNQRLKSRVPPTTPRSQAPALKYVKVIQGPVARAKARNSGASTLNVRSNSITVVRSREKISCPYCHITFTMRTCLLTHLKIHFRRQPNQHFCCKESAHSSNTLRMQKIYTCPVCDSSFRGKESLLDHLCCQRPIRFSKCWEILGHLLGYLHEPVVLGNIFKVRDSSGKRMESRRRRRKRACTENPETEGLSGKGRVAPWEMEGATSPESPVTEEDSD

[3] = biological target: FLAG-tagged TRIM28 (mouse) (mouse) (UniProt Q62318); experiment: as above
[4] = biological target: Recombinant human SMAD1 (ab84653; Abcam) (human) (UniProt Q15797); experiment: pull-down; recombinant proteins (500 ng each) with anti-SMAD1 antibody (913C1b) on anti-mouse IgG Dynabeads, SMAD1 as bait; PBST, room temperature, 15 min; Western blot; both purified

binding [1]	binding [2]	binding [3]	binding [4]	Substance
no binding	no binding	no binding	–	Myc-tagged SMAD1 (from UniProt Q15797 1-465)
–	–	–	binds	Recombinant human SMAD4 (ab81764; Abcam) (from UniProt Q13485 1-552)
